Laboratory results from PubChem BioAssay AID248 (DTP/NCI, 2004).
The list is a part of this screen's results and no random one: it is rich in T/C values a quarter to a half above the control, in often repeated tests (any T/C) and in doses without a T/C. Further doses and runs are listed elsewhere. T/C gives the treated animals as a percentage of the vehicle group. Some doses have a count of surviving animals in place of a T/C: the source files T/C as zero there, which appears to mark a toxic dose or a test without result, not a measured value. Some survivor counts are full or nearly so, which does not show that the dose was tolerated: survival well below the control is almost never listed, so the zero probably covers shortened survival too. Survivors were counted at the toxicity check, usually on the fifth day, unless a day is given; later deaths do not show. Schedules are NCI's codes, read here as Q, the interval in days (D) or hours (H), X, the number of doses. Some schedule codes hold Z or #, which are not explained here. For survival time, the PubChem record calls one and a half times the control and up active, and a quarter to a half above the control has no call in these data; cut-offs in other NCI protocols can differ. Some T/C values are followed by the survivors on the day toxicity was checked, most often the fifth; without a count, all were alive then. Some doses were run more than once; their values stand side by side, smallest first. Counts like (3×) say how often a value occurs here.

Test system: L1210 leukemia ip in BDF1 mice, survival T/C
Experiment: NCI In Vivo Anticancer Drug Screen. Data for tumor model L1210 Leukemia (intraperitoneal) in B6D2F1 (BDF1) mice
Details: T/C endpoint: mean survival time, higher T/C = longer survival

O=P1(N(CCCl)CCCl)NCCCO1 (stereo not given)
T/C (dose: 150.0 mg/kg/injection, schedule: Q01DX001 (ip), vehicle: water, evaluated on day 60): 164, 179, 290 % of control
T/C (dose: 150.0 mg/kg/injection, schedule: Q02DX010 (ip), vehicle: carboxymethylcellulose (CMC)): 99, 103, 113, 114, 118 % of control
T/C (dose: 180.0 mg/kg/injection, schedule: Q01DX001 (ip), vehicle: saline, evaluated on day 5): 412 and 443 % of control
T/C (dose: 180.0 mg/kg/injection, schedule: Q01DX001 (ip), vehicle: saline, evaluated on day 60): 179 % of control
T/C (dose: 180.0 mg/kg/injection, schedule: Q01DX001 (ip), vehicle: saline, evaluated on day 69): 358 % of control
survivor count (dose: 180.0 mg/kg/injection, schedule: Q01DX010 (ip), vehicle: saline): 6 of 6
T/C (dose: 200.0 mg/kg/injection, schedule: Q01DX001 (ip), vehicle: saline, evaluated on day 5): 175, 186, 203, 399, 408 % of control
T/C (dose: 200.0 mg/kg/injection, schedule: Q01DX001 (ip), vehicle: saline, evaluated on day 7): 340 and 408 % of control
T/C (dose: 200.0 mg/kg/injection, schedule: Q01DX001 (ip), vehicle: saline, evaluated on day 30): 108, 163, 180, 185, 212, 218, 220, 238, 252, 277, 279, 305, 306 % of control
T/C (dose: 200.0 mg/kg/injection, schedule: Q01DX001 (ip), vehicle: saline, evaluated on day 35): 245 % of control
T/C (dose: 200.0 mg/kg/injection, schedule: Q01DX001 (ip), vehicle: saline, evaluated on day 45): 175, 204, 219, 247, 277, 300, 377 % of control
T/C (dose: 200.0 mg/kg/injection, schedule: Q01DX001 (ip), vehicle: saline, evaluated on day 60): 145, 275, 276, 289, 300, 304, 432, 534 % of control
T/C (dose: 200.0 mg/kg/injection, schedule: Q01DX001 (ip), vehicle: saline, evaluated on day 63): 413 % of control
T/C (dose: 200.0 mg/kg/injection, schedule: Q01DX001 (ip), vehicle: saline, evaluated on day 64): 340 % of control
T/C (dose: 200.0 mg/kg/injection, schedule: Q01DX001 (ip), vehicle: saline, run until all animals had died): 244 and 262 % of control
survivor count (dose: 200.0 mg/kg/injection, schedule: Q01DX Z (ip), vehicle: saline): 6 of 6
survivor count (dose: 200.0 mg/kg/injection, schedule: Q#A X Z (ip), vehicle: saline): 0 of 6
T/C (dose: 225.0 mg/kg/injection, schedule: Q01DX001 (ip), vehicle: saline, evaluated on day 60): 231 and 542 % of control
T/C (dose: 225.0 mg/kg/injection, schedule: Q01DX001 (ip), vehicle: saline, run until all animals had died): 241 and 275 % of control
T/C (dose: 225.0 mg/kg/injection, schedule: Q02DX010 (ip), vehicle: carboxymethylcellulose (CMC)): 86, 93, 97 (2×), 98 % of control
T/C (dose: 234.0 mg/kg/injection, schedule: Q04DX002 (ip), vehicle: saline): 270, 272, 300, 302 % of control
T/C (dose: 250.0 mg/kg/injection, schedule: Q01DX001 (ip), vehicle: saline, evaluated on day 5): 464 % of control
T/C (dose: 250.0 mg/kg/injection, schedule: Q01DX001 (ip), vehicle: saline, evaluated on day 30): 167 and 269 % of control
T/C (dose: 250.0 mg/kg/injection, schedule: Q01DX001 (ip), vehicle: saline, evaluated on day 38): 98 % of control [5 of 6 alive]
T/C (dose: 250.0 mg/kg/injection, schedule: Q01DX001 (ip), vehicle: saline, evaluated on day 60): 577 % of control
T/C (dose: 250.0 mg/kg/injection, schedule: Q01DX001 (ip), vehicle: water): 137 % of control
survivor count (dose: 282.0 mg/kg/injection, schedule: Q07DX002 (ip), vehicle: saline): 7 of 10
T/C (dose: 300.0 mg/kg/injection, schedule: Q01DX001 (ip), vehicle: saline with Tween-80): 139 % of control [7 of 10 alive]
T/C (dose: 300.0 mg/kg/injection, schedule: Q01DX001 (ip), vehicle: saline, evaluated on day 5): 407 and 510 % of control
T/C (dose: 300.0 mg/kg/injection, schedule: Q01DX001 (ip), vehicle: saline, evaluated on day 20): 294 % of control
T/C (dose: 300.0 mg/kg/injection, schedule: Q01DX001 (ip), vehicle: saline, evaluated on day 30): 146, 207, 208 [4 of 6 alive], 237, 241, 260, 267 [5 of 6 alive], 274, 288, 290, 308, 326, 333 % of control
T/C (dose: 300.0 mg/kg/injection, schedule: Q01DX001 (ip), vehicle: saline, evaluated on day 45): 337, 386, 442, 510, 517, 540 % of control
T/C (dose: 300.0 mg/kg/injection, schedule: Q01DX001 (ip), vehicle: saline, evaluated on day 60): 352, 353 [7 of 8 alive], 364, 528, 556, 570, 596 % of control
T/C (dose: 300.0 mg/kg/injection, schedule: Q01DX001 (ip), vehicle: saline, evaluated on day 69): 449 % of control
T/C (dose: 300.0 mg/kg/injection, schedule: Q01DX001 (ip), vehicle: water, evaluated on day 4): 462 and 644 % of control
T/C (dose: 300.0 mg/kg/injection, schedule: Q01DX001 (ip), vehicle: water, evaluated on day 5): 476, 520, 574 % of control
T/C (dose: 300.0 mg/kg/injection, schedule: Q01DX001 (ip), vehicle: water, evaluated on day 30): 409 [9 of 10 alive] and 457 % of control
T/C (dose: 300.0 mg/kg/injection, schedule: Q01DX001 (ip), vehicle: water, evaluated on day 60): 482, 574, 659 % of control
survivor count (dose: 300.0 mg/kg/injection, schedule: Q#A X Z (ip), vehicle: saline): 0 of 6
T/C (dose: 400.0 mg/kg/injection, schedule: Q01DX001 (ip), vehicle: saline, evaluated on day 5): 416 % of control
T/C (dose: 400.0 mg/kg/injection, schedule: Q01DX001 (ip), vehicle: saline, evaluated on day 6): 184 % of control
T/C (dose: 400.0 mg/kg/injection, schedule: Q01DX001 (ip), vehicle: saline, evaluated on day 7): 108, 164, 353 % of control
T/C (dose: 400.0 mg/kg/injection, schedule: Q01DX001 (ip), vehicle: saline, evaluated on day 30): 137 [5 of 6 alive], 207, 210, 290, 290 [5 of 6 alive], 292 [5 of 6 alive], 305 [5 of 6 alive], 333 [4 of 6 alive], 333 % of control [5 of 6 alive] (2×)
T/C (dose: 400.0 mg/kg/injection, schedule: Q01DX001 (ip), vehicle: saline, evaluated on day 31): 184 % of control
T/C (dose: 400.0 mg/kg/injection, schedule: Q01DX001 (ip), vehicle: saline, evaluated on day 60): 162 [8 of 10 alive], 206, 526 % of control
